# Primary screen of a compound library

Sequences of proteins named here, by UniProt entry; tags and fusion partners are left off. Residues count along the entry.
UniProt Q8IDJ8, 1-583: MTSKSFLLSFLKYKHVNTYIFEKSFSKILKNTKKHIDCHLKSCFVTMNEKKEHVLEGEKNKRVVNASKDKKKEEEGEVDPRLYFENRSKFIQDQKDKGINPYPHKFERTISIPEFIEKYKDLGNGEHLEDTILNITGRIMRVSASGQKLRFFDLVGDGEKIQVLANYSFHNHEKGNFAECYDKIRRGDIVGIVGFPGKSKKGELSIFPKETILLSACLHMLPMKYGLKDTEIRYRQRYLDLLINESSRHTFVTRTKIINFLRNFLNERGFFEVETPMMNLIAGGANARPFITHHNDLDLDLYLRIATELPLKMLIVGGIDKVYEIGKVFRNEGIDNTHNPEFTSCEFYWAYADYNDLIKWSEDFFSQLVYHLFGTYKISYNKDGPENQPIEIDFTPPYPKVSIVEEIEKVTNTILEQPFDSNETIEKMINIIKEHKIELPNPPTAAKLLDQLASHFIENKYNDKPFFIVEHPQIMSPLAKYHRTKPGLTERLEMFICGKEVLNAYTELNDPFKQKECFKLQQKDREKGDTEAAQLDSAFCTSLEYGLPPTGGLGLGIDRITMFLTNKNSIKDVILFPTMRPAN
UniProt P9WNZ1, whole entry: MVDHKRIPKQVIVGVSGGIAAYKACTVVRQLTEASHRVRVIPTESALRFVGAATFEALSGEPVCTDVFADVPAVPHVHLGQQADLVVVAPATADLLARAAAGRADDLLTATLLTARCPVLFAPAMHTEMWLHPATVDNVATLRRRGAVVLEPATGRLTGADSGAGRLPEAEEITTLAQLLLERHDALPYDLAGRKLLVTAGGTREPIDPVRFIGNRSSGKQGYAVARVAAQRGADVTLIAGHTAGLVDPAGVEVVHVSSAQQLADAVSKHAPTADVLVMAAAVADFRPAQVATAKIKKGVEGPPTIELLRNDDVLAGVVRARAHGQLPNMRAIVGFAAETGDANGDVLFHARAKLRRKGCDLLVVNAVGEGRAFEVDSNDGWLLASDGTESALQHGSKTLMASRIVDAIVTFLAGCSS

From ChEMBL document CHEMBL3988442, “University of Dundee, Small-Polar-MMV Screening Library” (2021).

PfKRS1: 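Lysine-tRNA ligase, Plasmodium falciparum 3D7 (UniProt Q8IDJ8). Enzyme assay of the cytosolic lysyl-tRNA synthetase in 384-well plates, read by luminescence. Concentration: 30 µM. Higher reads as stronger inhibition, judged from the few compounds that gave an IC50. About 69,000 compounds were tested under these conditions; 0.071% (about 49) showed 50% or more at least once.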
Toxoplasma: 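Assay of Toxoplasma gondii numbers, read through their beta-galactosidase reporter with a colour substrate. Tested at 10 µM. Higher reads as fewer parasites (inferred from which compounds were picked for retests). Of about 67,000 compounds tested this way, about 260 (0.38%) reached 50% or more in at least one test.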
CoaBC: 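Coenzyme A biosynthesis protein CoaBC, Mycobacterium tuberculosis (UniProt P9WNZ1). Enzyme assay of CoaBC with a phosphate dye (Biomol Green) read at 650 nm. Compounds at 30 µM. Higher reads as stronger inhibition, judged from the few compounds that gave an IC50. Most strong results did not repeat in a second test. About 67,000 compounds were tested under these conditions; 0.06% (about 40) showed 50% or more at least once.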

Results are given as percent effect. How 0% and 100% were set is not recorded. Most values in the screen are low, and negative values occur. The compounds are a random part of those screened.

For Cn1cc(CN2CCCC23CCN(c2nc4ccccc4s2)CC3)cn1 the result was PfKRS1: 3.864%; Toxoplasma: 13.55%; CoaBC: 5.703%.
For CN(C)c1ncccc1NC(=O)C1CN(Cc2ccccc2)CCO1 (configuration not stated) the result was PfKRS1: 2.996%; Toxoplasma: -0.814%; CoaBC: 3.306%.
For O=S1(=O)CCCN1Cc1coc(-c2ccc(C(F)(F)F)cc2)n1 the result was PfKRS1: -5.609%; Toxoplasma: 5.776%; CoaBC: 9.665%.
For Cc1ncc2c(n1)CCN(Cc1ncc(C(C)(C)C)o1)C2 the result was PfKRS1: 7.396%; Toxoplasma: -5.963%; CoaBC: 2.273%.
For O=C(O)C(F)(F)F.O=C(O)C(F)(F)F.O=C(O)C(F)(F)F.[H][C@@]12C[C@@H](OCCN3CCCC3)CN1CCN(C(=O)Cc1ccccn1)C2 the result was Toxoplasma: -16.13%.
For CC[C@]12CN3C[C@](CC)(CN(C1)C3c1[nH]c(=O)[nH]c(=O)c1C)C2=O (some centres not stated) the result was PfKRS1: 1.203%; Toxoplasma: 21.7%; CoaBC: -1.211%.
For CC(C)(C)C(=O)NCc1nccn1CCc1ccccc1 the result was PfKRS1: 3.566%; Toxoplasma: 5.481%; CoaBC: -4.509%.
For O=C(CCn1cncn1)NCC1CCS(=O)(=O)C1 (configuration not stated) the result was PfKRS1: 3.821%; Toxoplasma: 4.196%; CoaBC: 6.8%.
For O=C(CN1CCCCC1Cn1cccn1)NC1CCN(C2CC2)CC1 (configuration not stated) the result was PfKRS1: 4.348%; Toxoplasma: -2.308%; CoaBC: -0.2132%.
For O=C(Cc1cccnc1)N1CCC2(CC1)CCN(C1CCOC1)C2 (configuration not stated) the result was PfKRS1: 3.894%; CoaBC: -2.121%.
For CCC(C(=O)NC1(COC)CCCC1)n1cccn1 (configuration not stated) the result was PfKRS1: -1.632%; Toxoplasma: -18.33%; CoaBC: 2.92%.
For Cc1ccc(CN2Cc3nnn(C)c3C(COCCN(C)C)C2)s1 (configuration not stated) the result was PfKRS1: 1.189%; CoaBC: -43.17%.
For COCCNC(=O)Cn1cc2c(n1)c(C)nn2C the result was PfKRS1: -2.151%; Toxoplasma: -24.67%; CoaBC: 0.7229%.
For Cc1nc2c(c(=O)n1C)CN(C(=O)C1CCCN(C(=O)N(C)C)C1)C2 (configuration not stated) the result was PfKRS1: 1.75%; Toxoplasma: -7.956%; CoaBC: 8.46%.
For Cc1cc(C)n(CC2CCCN2Cc2cccc(C#N)c2)n1 (configuration not stated) the result was PfKRS1: 4.362%; Toxoplasma: 14.72%; CoaBC: 9.719%.
For Cc1n[nH]c2c1C(c1ccc(O)c(Cl)c1)SCC(=O)N2 (configuration not stated) the result was PfKRS1: 3.16%; Toxoplasma: -3.467%; CoaBC: -5.518%.
For CCNC(=O)N1C[C@@H]2OCC(=O)N(C(C)C)[C@@H]2C1 the result was PfKRS1: 0.1734%; CoaBC: 6.09%.
For COC(=O)C(C)CN(Cc1ccccc1)C(=O)CN1CCCNC1=O (configuration not stated) the result was PfKRS1: 2.612%; Toxoplasma: -2.483%; CoaBC: 3.024%.
For O=C(CC1CC1)NCc1cn2c(n1)CN(Cc1cccc(F)c1)CC2 the result was PfKRS1: 0.3019%; CoaBC: 3.553%.
For Cc1nc(-c2cnn(C)c2)nc2c1CN(C(=O)c1cccn1C)CC2 the result was PfKRS1: -0.8959%; Toxoplasma: 0.3157%; CoaBC: 0.1626%.
For Cc1cccc(C(=O)Nc2cccc3c2CCCC3)n1 the result was PfKRS1: 4.549%; Toxoplasma: 0.9611%; CoaBC: 10.07%.
For CCc1nc(C2CCCN2C(=O)c2ccoc2C)no1 (configuration not stated) the result was PfKRS1: 1.407%; Toxoplasma: 1.429%; CoaBC: 2.332%.

The first 2 entries again:

structure	PfKRS1	Toxoplasma	CoaBC
Cn1cc(CN2CCCC23CCN(c2nc4ccccc4s2)CC3)cn1	3.864%	13.55%	5.703%
CN(C)c1ncccc1NC(=O)C1CN(Cc2ccccc2)CCO1 (configuration not stated)	2.996%	-0.814%	3.306%